From patent publication US20200339632 (published 2020)

Experiment: general procedure: solution-phase peptide synthesis; PyBOP; MoO2Cl2/4-nitrobenzoic anhydride; VO(OTf)2/2,6-dinitrobenzoic anhydride
Details: coupling step

## Fmoc-Asp(O^tBu)-D-Phe-ACHA-Arg(Mtr)-Gly-OCH3
  step yield: 68% yield
